According to the supplement of paper PMC10849652:
The other results are listed elsewhere or left out.

By UniProt entry, the sequences of proteins in these tests, tags left out. Where a name states a change or a piece, a line headed by the entry shows the natural chain unless it says otherwise.
UniProt Q8N2U9: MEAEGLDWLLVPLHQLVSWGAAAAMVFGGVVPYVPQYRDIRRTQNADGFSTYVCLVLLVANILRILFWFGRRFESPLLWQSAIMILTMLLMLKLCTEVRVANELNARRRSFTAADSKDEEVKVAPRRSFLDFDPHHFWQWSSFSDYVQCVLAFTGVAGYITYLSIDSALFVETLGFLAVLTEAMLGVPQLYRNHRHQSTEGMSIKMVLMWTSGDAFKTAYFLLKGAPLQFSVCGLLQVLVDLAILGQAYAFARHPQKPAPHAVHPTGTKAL
UniProt Q8NEW0: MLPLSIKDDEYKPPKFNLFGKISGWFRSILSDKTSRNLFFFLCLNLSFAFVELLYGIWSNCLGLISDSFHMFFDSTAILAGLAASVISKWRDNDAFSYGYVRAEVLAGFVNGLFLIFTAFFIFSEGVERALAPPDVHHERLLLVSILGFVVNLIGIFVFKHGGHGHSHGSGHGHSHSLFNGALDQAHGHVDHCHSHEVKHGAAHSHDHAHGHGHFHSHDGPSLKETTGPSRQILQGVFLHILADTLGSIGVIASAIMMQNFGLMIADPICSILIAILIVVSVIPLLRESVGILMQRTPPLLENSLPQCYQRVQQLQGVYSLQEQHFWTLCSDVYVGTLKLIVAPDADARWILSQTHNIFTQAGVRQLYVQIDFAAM
UniProt Q9Y2E8: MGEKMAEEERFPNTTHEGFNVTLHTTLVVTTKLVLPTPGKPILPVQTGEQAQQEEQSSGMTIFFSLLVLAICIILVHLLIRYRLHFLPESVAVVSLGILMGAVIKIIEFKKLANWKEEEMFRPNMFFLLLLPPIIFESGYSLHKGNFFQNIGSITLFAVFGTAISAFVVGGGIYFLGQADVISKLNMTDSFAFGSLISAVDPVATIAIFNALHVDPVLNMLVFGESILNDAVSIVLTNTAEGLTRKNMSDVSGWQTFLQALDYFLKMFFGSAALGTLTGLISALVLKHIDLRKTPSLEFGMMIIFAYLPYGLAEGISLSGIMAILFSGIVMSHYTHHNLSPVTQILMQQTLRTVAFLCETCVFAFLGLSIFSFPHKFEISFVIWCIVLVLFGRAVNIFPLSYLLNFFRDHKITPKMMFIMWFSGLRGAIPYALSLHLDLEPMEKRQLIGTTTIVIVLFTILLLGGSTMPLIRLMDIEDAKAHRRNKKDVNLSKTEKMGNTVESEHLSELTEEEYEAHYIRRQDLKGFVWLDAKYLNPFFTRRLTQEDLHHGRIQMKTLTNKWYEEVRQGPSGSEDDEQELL
UniProt P84022, whole entry, looked up: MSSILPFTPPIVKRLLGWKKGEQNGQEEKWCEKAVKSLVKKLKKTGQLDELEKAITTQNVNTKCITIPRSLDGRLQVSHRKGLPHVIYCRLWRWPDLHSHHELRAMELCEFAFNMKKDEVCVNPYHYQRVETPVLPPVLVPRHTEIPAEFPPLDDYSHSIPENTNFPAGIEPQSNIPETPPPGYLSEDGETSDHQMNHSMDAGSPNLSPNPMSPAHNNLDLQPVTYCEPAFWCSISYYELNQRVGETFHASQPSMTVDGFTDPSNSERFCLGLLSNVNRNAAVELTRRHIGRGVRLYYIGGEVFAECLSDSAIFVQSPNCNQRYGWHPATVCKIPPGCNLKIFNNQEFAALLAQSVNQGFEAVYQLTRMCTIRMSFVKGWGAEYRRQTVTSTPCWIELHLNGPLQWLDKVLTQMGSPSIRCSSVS
UniProt Q96QE2: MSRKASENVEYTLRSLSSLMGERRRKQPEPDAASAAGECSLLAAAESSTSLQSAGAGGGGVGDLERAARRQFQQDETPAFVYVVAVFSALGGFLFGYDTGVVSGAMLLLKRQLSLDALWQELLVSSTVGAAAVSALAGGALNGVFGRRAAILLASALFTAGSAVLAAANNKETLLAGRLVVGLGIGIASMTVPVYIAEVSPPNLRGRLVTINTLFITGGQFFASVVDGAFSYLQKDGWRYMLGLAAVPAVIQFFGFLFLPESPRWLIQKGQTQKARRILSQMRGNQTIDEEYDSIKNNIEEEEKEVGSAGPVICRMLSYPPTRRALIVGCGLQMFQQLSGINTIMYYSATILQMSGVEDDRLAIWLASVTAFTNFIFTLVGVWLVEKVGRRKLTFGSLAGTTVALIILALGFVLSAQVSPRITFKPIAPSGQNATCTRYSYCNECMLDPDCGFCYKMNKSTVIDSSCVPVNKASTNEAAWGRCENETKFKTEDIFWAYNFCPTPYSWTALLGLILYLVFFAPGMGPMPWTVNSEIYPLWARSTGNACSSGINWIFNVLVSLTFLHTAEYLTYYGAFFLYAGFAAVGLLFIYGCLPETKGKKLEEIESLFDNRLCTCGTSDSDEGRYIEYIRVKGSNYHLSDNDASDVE
UniProt Q99717: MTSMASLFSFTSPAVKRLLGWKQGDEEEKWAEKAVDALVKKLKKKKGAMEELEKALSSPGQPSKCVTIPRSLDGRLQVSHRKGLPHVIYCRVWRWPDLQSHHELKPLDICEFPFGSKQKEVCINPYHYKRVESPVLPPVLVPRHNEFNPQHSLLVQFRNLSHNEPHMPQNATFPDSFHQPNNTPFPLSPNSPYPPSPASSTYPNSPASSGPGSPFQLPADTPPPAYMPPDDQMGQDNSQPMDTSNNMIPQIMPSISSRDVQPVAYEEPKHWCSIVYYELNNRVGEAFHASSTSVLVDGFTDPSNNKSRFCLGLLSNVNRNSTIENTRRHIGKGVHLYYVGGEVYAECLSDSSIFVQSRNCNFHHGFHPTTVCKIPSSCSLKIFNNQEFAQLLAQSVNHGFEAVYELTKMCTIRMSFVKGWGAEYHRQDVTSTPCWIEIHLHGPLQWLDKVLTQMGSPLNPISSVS
UniProt Q8WWI5: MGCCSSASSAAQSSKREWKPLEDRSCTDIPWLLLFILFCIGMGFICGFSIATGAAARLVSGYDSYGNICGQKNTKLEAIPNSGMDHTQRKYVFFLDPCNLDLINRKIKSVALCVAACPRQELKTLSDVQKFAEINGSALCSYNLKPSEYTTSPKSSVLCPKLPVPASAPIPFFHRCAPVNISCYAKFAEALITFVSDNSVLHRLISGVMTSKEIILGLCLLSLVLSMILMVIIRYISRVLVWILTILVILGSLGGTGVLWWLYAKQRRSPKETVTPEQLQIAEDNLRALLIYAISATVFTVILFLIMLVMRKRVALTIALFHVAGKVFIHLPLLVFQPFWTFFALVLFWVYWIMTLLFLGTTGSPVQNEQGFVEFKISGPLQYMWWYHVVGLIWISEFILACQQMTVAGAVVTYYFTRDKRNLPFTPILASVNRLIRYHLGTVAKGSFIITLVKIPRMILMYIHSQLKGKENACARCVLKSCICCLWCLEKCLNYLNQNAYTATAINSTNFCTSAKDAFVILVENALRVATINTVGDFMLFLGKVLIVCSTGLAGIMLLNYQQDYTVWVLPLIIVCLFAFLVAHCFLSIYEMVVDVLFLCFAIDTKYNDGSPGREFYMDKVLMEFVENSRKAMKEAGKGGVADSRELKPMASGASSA
UniProt Q9NVC3: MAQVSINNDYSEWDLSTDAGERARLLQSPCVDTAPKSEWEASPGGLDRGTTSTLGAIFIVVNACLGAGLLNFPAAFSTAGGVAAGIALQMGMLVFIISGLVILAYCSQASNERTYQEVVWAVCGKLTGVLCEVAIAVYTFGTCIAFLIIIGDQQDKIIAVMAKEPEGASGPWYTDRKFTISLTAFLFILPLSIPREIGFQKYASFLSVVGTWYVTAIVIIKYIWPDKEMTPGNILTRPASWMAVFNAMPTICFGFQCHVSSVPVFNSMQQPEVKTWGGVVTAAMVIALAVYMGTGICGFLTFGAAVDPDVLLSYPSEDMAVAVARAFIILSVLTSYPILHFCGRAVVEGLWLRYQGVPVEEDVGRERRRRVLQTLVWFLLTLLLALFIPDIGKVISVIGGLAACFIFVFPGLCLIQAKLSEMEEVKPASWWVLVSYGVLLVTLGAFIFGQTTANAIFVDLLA
UniProt Q8IVJ1: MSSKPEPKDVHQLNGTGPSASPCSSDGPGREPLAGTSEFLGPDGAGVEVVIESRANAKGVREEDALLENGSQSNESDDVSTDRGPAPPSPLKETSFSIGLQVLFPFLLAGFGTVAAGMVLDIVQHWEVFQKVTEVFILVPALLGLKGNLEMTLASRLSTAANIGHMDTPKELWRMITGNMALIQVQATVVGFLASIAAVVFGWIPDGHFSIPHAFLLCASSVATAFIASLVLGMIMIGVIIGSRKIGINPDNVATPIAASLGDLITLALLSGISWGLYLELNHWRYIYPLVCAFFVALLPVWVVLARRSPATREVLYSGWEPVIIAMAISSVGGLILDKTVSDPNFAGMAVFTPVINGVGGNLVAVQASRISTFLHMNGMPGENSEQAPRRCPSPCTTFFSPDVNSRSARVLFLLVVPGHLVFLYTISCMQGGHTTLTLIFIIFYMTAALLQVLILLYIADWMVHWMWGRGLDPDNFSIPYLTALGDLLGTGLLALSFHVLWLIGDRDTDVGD
UniProt Q96A29: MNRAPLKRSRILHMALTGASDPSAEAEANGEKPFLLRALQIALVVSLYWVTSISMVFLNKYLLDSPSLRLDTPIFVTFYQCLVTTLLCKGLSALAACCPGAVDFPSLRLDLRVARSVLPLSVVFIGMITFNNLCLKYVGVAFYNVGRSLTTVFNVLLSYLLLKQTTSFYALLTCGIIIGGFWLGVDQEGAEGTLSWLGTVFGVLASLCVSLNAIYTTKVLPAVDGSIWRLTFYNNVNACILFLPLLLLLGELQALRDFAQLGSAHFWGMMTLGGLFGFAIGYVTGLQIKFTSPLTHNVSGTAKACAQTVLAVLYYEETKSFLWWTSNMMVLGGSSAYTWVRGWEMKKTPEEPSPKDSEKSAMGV
UniProt Q96GZ6: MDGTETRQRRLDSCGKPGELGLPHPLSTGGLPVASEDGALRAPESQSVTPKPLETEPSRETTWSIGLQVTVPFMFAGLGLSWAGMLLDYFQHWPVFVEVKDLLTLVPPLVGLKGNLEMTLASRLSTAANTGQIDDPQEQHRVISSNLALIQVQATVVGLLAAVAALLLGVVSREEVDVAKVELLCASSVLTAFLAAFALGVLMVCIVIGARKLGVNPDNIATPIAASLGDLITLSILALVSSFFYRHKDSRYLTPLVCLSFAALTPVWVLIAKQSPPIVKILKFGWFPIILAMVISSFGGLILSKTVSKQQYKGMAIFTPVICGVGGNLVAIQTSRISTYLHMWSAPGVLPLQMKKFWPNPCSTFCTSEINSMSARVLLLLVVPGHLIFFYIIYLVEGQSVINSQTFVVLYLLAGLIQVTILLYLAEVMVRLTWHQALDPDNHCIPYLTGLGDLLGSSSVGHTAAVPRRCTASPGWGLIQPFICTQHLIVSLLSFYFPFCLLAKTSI
UniProt Q13433: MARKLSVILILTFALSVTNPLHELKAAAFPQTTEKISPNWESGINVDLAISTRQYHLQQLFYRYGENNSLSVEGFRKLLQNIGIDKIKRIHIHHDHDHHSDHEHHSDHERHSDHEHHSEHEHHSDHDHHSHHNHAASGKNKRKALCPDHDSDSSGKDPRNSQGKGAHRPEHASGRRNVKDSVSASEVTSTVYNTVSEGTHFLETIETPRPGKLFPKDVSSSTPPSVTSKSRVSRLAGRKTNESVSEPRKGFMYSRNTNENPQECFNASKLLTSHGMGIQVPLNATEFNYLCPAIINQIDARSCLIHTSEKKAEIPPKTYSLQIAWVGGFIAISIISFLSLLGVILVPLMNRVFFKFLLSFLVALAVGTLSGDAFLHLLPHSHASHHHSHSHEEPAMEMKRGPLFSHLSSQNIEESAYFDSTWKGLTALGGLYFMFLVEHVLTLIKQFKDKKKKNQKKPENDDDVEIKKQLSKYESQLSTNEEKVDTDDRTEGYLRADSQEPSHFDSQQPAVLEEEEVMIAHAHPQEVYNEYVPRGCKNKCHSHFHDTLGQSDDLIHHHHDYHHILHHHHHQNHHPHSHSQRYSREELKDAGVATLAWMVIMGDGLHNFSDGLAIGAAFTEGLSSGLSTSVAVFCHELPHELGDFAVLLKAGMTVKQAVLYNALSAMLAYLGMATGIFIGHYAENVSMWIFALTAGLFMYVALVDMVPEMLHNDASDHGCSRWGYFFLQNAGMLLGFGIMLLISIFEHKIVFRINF
UniProt Q86UD5: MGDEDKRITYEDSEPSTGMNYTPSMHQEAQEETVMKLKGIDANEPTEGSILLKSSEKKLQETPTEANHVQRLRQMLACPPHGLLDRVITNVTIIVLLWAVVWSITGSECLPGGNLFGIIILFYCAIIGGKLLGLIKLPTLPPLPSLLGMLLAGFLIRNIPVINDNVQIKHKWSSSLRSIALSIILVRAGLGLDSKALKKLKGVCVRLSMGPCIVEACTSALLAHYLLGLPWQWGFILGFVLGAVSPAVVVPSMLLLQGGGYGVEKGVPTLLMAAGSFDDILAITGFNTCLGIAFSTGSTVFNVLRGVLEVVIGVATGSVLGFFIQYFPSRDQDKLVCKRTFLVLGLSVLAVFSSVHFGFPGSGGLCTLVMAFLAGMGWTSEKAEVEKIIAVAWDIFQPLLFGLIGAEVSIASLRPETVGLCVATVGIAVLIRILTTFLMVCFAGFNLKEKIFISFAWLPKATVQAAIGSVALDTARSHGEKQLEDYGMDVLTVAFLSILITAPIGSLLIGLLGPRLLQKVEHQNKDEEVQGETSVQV

Compound: CNc1nc(-c2ccc3c(N)n[nH]c3c2)cc(N2C[C@@H](C(=O)NC3CCCCC3)CC[C@H]2C)n1
Experiment: log2 fold change, soluble protein after heating vs DMSO (PISA); higher = thermal stabilisation; K562 lysate, 10 uM; active = over 0.2 and 3.5 SD of the protein, either way, in both replicates (recomputed)
How it was run: (§1)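 Soluble protein was defined as the supernatant remaining after 21,000xg for 90 min, following pooling of heated aliquots and adjustment to 0.5% NP-40 at 4°C. Before that, crude K562 extract at 1 mg/mL protein in PBS pH 7.4 with 1 mM MgCl2 was treated with 10 μM compound for 30 min and heated for 3 min across 48°C-58°C. Quantification used TMTpro 16plex LC-MS/MS with channel sums equalised, and values are log-two fold changes in thermal stability relative to solvent controls from duplicates.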

log2 fold change, inactive:
SLC66A2 (UniProt Q8N2U9) 0.162
SLC30A7 (UniProt Q8NEW0) -0.066
SLX4 (UniProt Q8IY92) 0.278
SLC9A8 isoform 2 (UniProt Q9Y2E8) 0.019
SMAD3 (UniProt P84022) 0.053
SLC2A13 (UniProt Q96QE2) 0.047
SLC66A3 (UniProt Q8N755) 0.017
SLC39A1 (UniProt Q9NY26) 0.228
SMAD5 (UniProt Q99717) 0.105
SLC46A1 (UniProt Q96NT5) -0.032
SLC50A1 (UniProt Q9BRV3) -0.235
SLC8B1 (UniProt Q6J4K2) 0.152
SLC25A23 isoform 3 (UniProt Q9BV35) 0.193
SLC44A1 (UniProt Q8WWI5) 0.148
SLC38A7 (UniProt Q9NVC3) 0.029
SLC25A39 (UniProt Q9BZJ4) 0.099

Compound: COC(=O)N[C@@H](C)CNc1nccc(-c2cn(C(C)C)nc2-c2cc(Cl)cc(NS(C)(=O)=O)c2F)n1 [encorafenib]
Experiment: as above
How it was run: as §1

log2 fold change, inactive:
SLC66A2 (UniProt Q8N2U9) 0.007
SLC30A7 (UniProt Q8NEW0) 0.174
SLC25A28 (UniProt Q96A46) 0.065
SLC2A13 (UniProt Q96QE2) 0.101
SLC41A1 (UniProt Q8IVJ1) 0.071
SLC35C1 (UniProt Q96A29) 0.114
SLCO2B1 (UniProt O94956) 0.096
SLC41A3 isoform 9 (UniProt Q96GZ6) 0.038
SLC35E2B (UniProt P0CK96) 0.187
SMAD5 (UniProt Q99717) 0.035
SLFN14 (UniProt P0C7P3) 0.115
SLC38A7 (UniProt Q9NVC3) 0.03
SLC25A35 (UniProt Q3KQZ1) 0.01

Compound: COC(=O)[C@H](CCSC)NC(=O)C1=C(C=C(C=C1)NC[C@H](CS)N)C2=CC=CC=C2
Experiment: as above
How it was run: as §1

log2 fold change, inactive:
SLC66A2 (UniProt Q8N2U9) 0.205
SLC30A7 (UniProt Q8NEW0) -0.023
SLC25A28 (UniProt Q96A46) -0.091
SLC2A13 (UniProt Q96QE2) -0.12
SLC41A1 (UniProt Q8IVJ1) -0.031
SLC35C1 (UniProt Q96A29) -0.055
SLCO2B1 (UniProt O94956) 0.16
SLC41A3 isoform 9 (UniProt Q96GZ6) 0.051
SLC35E2B (UniProt P0CK96) -0.131
SMAD5 (UniProt Q99717) -0.093
SLFN14 (UniProt P0C7P3) -0.03
SLC38A7 (UniProt Q9NVC3) -0.005
SLC25A35 (UniProt Q3KQZ1) -0.022

Compound: COc1cc(Nc2ncc3c(n2)-c2ccc(Cl)cc2C(c2c(F)cccc2OC)=NC3)ccc1C(=O)O [alisertib]
Experiment: as above
How it was run: as §1

log2 fold change, inactive:
SLC66A2 (UniProt Q8N2U9) 0.164
SLC30A7 (UniProt Q8NEW0) -0.253
SLC35A1 (UniProt P78382) -0.018
SLC9A8 isoform 2 (UniProt Q9Y2E8) -0.085
SLC3A2 (UniProt F5H867) 0.033
SMAD3 (UniProt P84022) 0.025
SLC25A16 (UniProt P16260) -0.064
SLCO4A1 (UniProt Q96BD0) -0.041
SLC41A1 (UniProt Q8IVJ1) 0.024
SLC35C1 (UniProt Q96A29) 0.093
SLC29A3 (UniProt Q9BZD2) 0.029
SLC41A3 isoform 9 (UniProt Q96GZ6) 0.024
SMAD5 (UniProt Q99717) -0.079
SLC66A1 (UniProt Q6ZP29) -0.088
SLC39A6 (UniProt Q13433) 0.065
SLC38A7 (UniProt Q9NVC3) -0.013
SLC25A39 (UniProt Q9BZJ4) 0.179

Compound: COc1cc2nc(-c3cc(F)ccc3O)nc(N[C@@H]3CNC[C@H]3C(C)(C)O)c2cc1OC
Experiment: as above
How it was run: as §1

log2 fold change, inactive:
SLC66A2 (UniProt Q8N2U9) 0.061
SLC30A7 (UniProt Q8NEW0) 0.039
SLC9A7 (UniProt Q96T83) 0.124
SLC9A8 isoform 2 (UniProt Q9Y2E8) -0.002
SLC3A2 (UniProt F5H867) 0.007
SMAD3 (UniProt P84022) 0.014
SLC66A3 (UniProt Q8N755) -0.098
SLC41A1 (UniProt Q8IVJ1) 0.014
SLC35C1 (UniProt Q96A29) 0.055
SLC39A1 (UniProt Q9NY26) 0.241
SLC29A3 (UniProt Q9BZD2) -0.142
SLC43A3 (UniProt Q8NBI5) -0.027
SLC46A1 (UniProt Q96NT5) -0.041
SLC66A1 (UniProt Q6ZP29) -0.01
SLC39A6 (UniProt Q13433) -0.002
SLC50A1 (UniProt Q9BRV3) 0.039
SLC8B1 (UniProt Q6J4K2) -0.06
SLC9B2 (UniProt Q86UD5) -0.002
SLC25A23 isoform 3 (UniProt Q9BV35) 0.204
SLC38A7 (UniProt Q9NVC3) -0.032
